Test [1] deals with T1, biotinylated Peptide A4 (AGR2-binding peptide aptamer, …).
T1 sequence (peptide, biotin (end not stated)): HLPTTIYYGPPG
Nature of the test: pull-down; biotinylated peptide A4 on streptavidin beads incubated with MCF7 lysates (Tris-HCl pH 8.0, 1% Nonidet P-40); cells pre-treated with DMSO or the cross-linker DSS; eluates immunoblotted for AGR2 and silver stained; only the target purified. A general note: A western blot detects proteins with antibodies after separation by electrophoresis.

Test [2] concerns the target T2, endogenous AGR2 of MCF7 cells (human (endogenous in MCF7)), O95994.
T2 chain: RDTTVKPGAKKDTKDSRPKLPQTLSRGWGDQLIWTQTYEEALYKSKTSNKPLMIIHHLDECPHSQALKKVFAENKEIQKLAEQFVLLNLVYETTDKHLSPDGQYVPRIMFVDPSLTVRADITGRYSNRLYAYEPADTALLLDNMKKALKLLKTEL
Put plainly: cross-linking; MCF7 cells incubated with the cell-membrane permeable cross-linker DSS for 1 h at 37 °C; 36 kDa band affinity purified, excised and analysed by MALDI-TOF mass spectrometry. The settings on record: remark: other sources report otherwise.

Results are given in words; binding and its absence hold for the method and conditions named. In cells and extracts the contact can be indirect. Some entries that bind do so weakly or less than the wild type.

For “DSS cross-linked dimer of endogenous AGR2 from MCF7 cells (from UniProt O95994 21-175) (complex)”, in test [1], the binding result is “binds”.
On to “endogenous AGR2 of MCF7 cells (from UniProt O95994 21-175)”, for which the binding result in test [1] is listed as “binds”.

B1: endogenous AGR2 of MCF7 cells, O95994 21-175 (protein)
chain: T2 chain
As for B1, the binding entry in test [2] is reported as “binds”.

(Values after paper PMC5880107, “The Sequence-specific Peptide-binding Activity of the Protein Sulfide Isomerase AGR2 Directs Its Stable Binding to the Oncogenic Receptor EpCAM*^([image sbox.jpg])” (Molecular & Cellular Proteomics : MCP, 2018).)
